The text below walks through data of article PMC7819943, “Rice protein-binding microarrays: a tool to detect cis-acting elements near promoter regions in rice”.

The other results are listed elsewhere or left out.

This experiment addresses T1, OsSMF1 (Oryza sativa, UniProt Q6ZLB0 1-436).
T1 sequence: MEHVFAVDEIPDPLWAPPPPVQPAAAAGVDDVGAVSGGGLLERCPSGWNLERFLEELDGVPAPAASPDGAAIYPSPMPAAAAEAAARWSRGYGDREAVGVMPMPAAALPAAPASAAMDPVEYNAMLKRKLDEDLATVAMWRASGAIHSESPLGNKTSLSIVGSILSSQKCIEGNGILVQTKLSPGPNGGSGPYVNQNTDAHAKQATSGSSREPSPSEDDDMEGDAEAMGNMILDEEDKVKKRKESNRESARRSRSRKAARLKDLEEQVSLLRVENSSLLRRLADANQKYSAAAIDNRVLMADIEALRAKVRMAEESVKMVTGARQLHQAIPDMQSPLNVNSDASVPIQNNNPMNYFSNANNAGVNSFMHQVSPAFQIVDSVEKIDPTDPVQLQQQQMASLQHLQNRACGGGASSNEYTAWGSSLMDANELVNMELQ
The experiment is described as follows: protein-binding microarray (RPBM); PBS, 2% BSA, 51.3 ng/ul salmon testes DNA, 50 uM zinc acetate, 200 nM TF, 25 C, 1 h; high values mean tight binding. Conditions: protein: recombinant; tags: N-terminal polyhistidine and DsRed monomer fusion (pET32a); chain copies: 2; label: CyDye5-dUTP incorporated in the synthesized complementary strand; 3' TTTTT single-stranded linker to array surface; dsDNA, one strand shown. The method, boiled down:
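In PBS with 2% BSA, salmon testes DNA and 50 µM zinc acetate, 200 nM protein was incubated on a custom Agilent array at 25 °C for 1 h and then washed off. The array had been made double-stranded by primer extension with Cy5-dUTP and blocked with 2% BSA. The proteins were transcription factors fused N-terminally to polyhistidine and DsRed, expressed in E. coli BL21-CodonPlus and purified on Ni–NTA. The binding signal is per-feature fluorescence intensity (arbitrary units) from an Axon 4000B scanner.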
Regarding “GAGCCTCGTCCCTATCCCACATCACCTTGCTCGATCGCCTCGGAGTCACCTAGTGCAG”, the binding signal was 3220 fluorescence intensity (a.u.).

Consider “TTTGGTTCCTGGTGTTCGGGCTGAAGGCCACATAGGAGCACGGAGTCACCTAGTGCAG”, for which the binding signal was 3480 fluorescence intensity (a.u.).

For the sequence “ACTTATCACGTTTATACTGTCGACAATATACCTACAATTGCGGAGTCACCTAGTGCAG”, the binding signal is 3220 fluorescence intensity (a.u.).

Take “ACTTGTCGGTCGTGACATCATACACGAGCGAAAAGGAGGACGGAGTCACCTAGTGCAG”: the binding signal was 4770 fluorescence intensity (a.u.).

With “TACGTCGTCTGCCTCCGCAGCGCCACGCCGGACGCCACCGCGGAGTCACCTAGTGCAG”, the binding signal is 4150 fluorescence intensity (a.u.).

As for “CTTCTTCGGGCCTTCTTTCAGAACTTTGGGTGGGCCTCACCGGAGTCACCTAGTGCAG”, the binding signal was 64300 fluorescence intensity (a.u.).

For the sequence “AGATTTGTGTGTGTGGTTGCTGTTGCTGTGTGTGAATGGACGGAGTCACCTAGTGCAG”, the binding signal is 4110 fluorescence intensity (a.u.).

Consider “CTAGAACGTACGGGCTGAAATCAATCTTGGGTTTCTACTGCGGAGTCACCTAGTGCAG”, for which the binding signal is 3280 fluorescence intensity (a.u.).

For the sequence “CTACGGAGCATGCCACATAGGCAAAACCACGGTCAAACAACGGAGTCACCTAGTGCAG”, the binding signal was 6090 fluorescence intensity (a.u.).

For “CGCACGCTAGAGTGTCGTCATCGTTGCCGCTGCTGCTGGGCGGAGTCACCTAGTGCAG”, the binding signal was 3450 fluorescence intensity (a.u.).

In the case of “CGAATGTTTTCCCGATGGGAGCCACGTGTCCTCGTGTGGACGGAGTCACCTAGTGCAG”, the binding signal was 23100 fluorescence intensity (a.u.).

In the case of “AAGATAAGCATCGCGTCATGGCCCAGCTCGGAGGAGGAGCCGGAGTCACCTAGTGCAG”, the binding signal is 3250 fluorescence intensity (a.u.).

As to “GATGTTGATGCCACCGTGGTTGCCGACGGGCAGGTGTGATCGGAGTCACCTAGTGCAG”, the binding signal was 3830 fluorescence intensity (a.u.).

As for “TGGTGTTAGCTCACGTGAAAAGTCTTGCCTTCCAGACTGCCGGAGTCACCTAGTGCAG”, the binding signal was 19300 fluorescence intensity (a.u.).

“TGCATGCGATACTGTCTTATCATGGACCGCTCCACCCCTCCGGAGTCACCTAGTGCAG”: the binding signal was 3380 fluorescence intensity (a.u.).

Take “TTAAATATAAGGCGCAACTATCATTAAAATATGATATCGTCGGAGTCACCTAGTGCAG”: the binding signal was 37800 fluorescence intensity (a.u.).

For the sequence “TTGTGCAGGTGACGCTGCAGATTGCATATGGTATGGGTTTCGGAGTCACCTAGTGCAG”, the binding signal was 3960 fluorescence intensity (a.u.).

For “TCGATCGGGCTCGGAGACGTCGACGCCGACGAGGAGCTCCCGGAGTCACCTAGTGCAG”, the binding signal was 3230 fluorescence intensity (a.u.).

Turning to “TAAAAGATTCGTCTCGCAATTTACACGCAATCTGTATAATCGGAGTCACCTAGTGCAG”, the binding signal was 3860 fluorescence intensity (a.u.).

“TCGTCGTCGTCGTCTAGGAAGGTGAAGCCGGTGACGACGACGGAGTCACCTAGTGCAG”: the binding signal is 3680 fluorescence intensity (a.u.).

Turning to “GGTGTGCATGCGTGCCGGTTACGTGGTGAAGGGGCTGCTGCGGAGTCACCTAGTGCAG”, the binding signal was 3930 fluorescence intensity (a.u.).

In the case of “AGTGGATGAGTTTGAGTTTTAGGATTTAGTGGGGTATTATCGGAGTCACCTAGTGCAG”, the binding signal was 3450 fluorescence intensity (a.u.).

In the case of “TCACCTTGCATCCCAGAAAATCCACACGCCGACGTGGCGGCGGAGTCACCTAGTGCAG”, the binding signal is 18100 fluorescence intensity (a.u.).

Regarding “GTGGATTTTCTAGGACAAAAGGAGTGTGTGATGCCATTGTCGGAGTCACCTAGTGCAG”, the binding signal is 14700 fluorescence intensity (a.u.).

For “GGGGTGCCACACACACGTACGTACGGGAGGATCAGTGCAACGGAGTCACCTAGTGCAG”, the binding signal is 3450 fluorescence intensity (a.u.).

Regarding “GGGGCAGCCATGTCATTTCCCCGCCAAGAAACTATCTCCACGGAGTCACCTAGTGCAG”, the binding signal is 5190 fluorescence intensity (a.u.).

“AAATGGTTCTACAAATGAACCAGGTACTGTAGTTGAATTCCGGAGTCACCTAGTGCAG”: the binding signal was 33700 fluorescence intensity (a.u.).

Regarding “GCCCGCGCGCGCGGGAACACACGTATACGCATGTGGAGGCCGGAGTCACCTAGTGCAG”, the binding signal was 3390 fluorescence intensity (a.u.).

As to “TTTTAGGTAGAATGGTCCTGTTGGATCATCATATCAATGACGGAGTCACCTAGTGCAG”, the binding signal was 43400 fluorescence intensity (a.u.).

For the sequence “GTGTGATTATAACTACACATCAGCTTGCTGGCCAGCCTCTCGGAGTCACCTAGTGCAG”, the binding signal is 6590 fluorescence intensity (a.u.).

Regarding “TGCGCCCCAGATACAAAGTCGCCAACGCGCAATTTATTTACGGAGTCACCTAGTGCAG”, the binding signal was 36400 fluorescence intensity (a.u.).

Regarding “GTAGTATGTTATTGTACGTGGATATTTTATAGAGATGCTACGGAGTCACCTAGTGCAG”, the binding signal was 3400 fluorescence intensity (a.u.).

Regarding “GACCAAATCGAATTATGCATCCACTATAAATATAGGAGTTCGGAGTCACCTAGTGCAG”, the binding signal was 3690 fluorescence intensity (a.u.).

Take “AGTGTCGTTGTCACGTCTACCGTGAGCGCGGAACTACCCTCGGAGTCACCTAGTGCAG”: the binding signal is 3610 fluorescence intensity (a.u.).

For the sequence “GTGGCCGTGGTAGGGAGAGGTGGTGGTGCGCGCGCGGTAACGGAGTCACCTAGTGCAG”, the binding signal is 3440 fluorescence intensity (a.u.).

For the sequence “GATTGGAATAAGTGGTGACAGCACATTATTACCAACTTTTCGGAGTCACCTAGTGCAG”, the binding signal is 4440 fluorescence intensity (a.u.).

Regarding “GCCCAGCTTGTATATAATGGCACGCATTCCTCTGCACCTCCGGAGTCACCTAGTGCAG”, the binding signal is 3900 fluorescence intensity (a.u.).

In the case of “TTCACCATCGAGCTCATGGTTTGGACGTTTGGTCACCACCCGGAGTCACCTAGTGCAG”, the binding signal is 3180 fluorescence intensity (a.u.).

Regarding “TATCAAAATCCACTGCAACATTTAATACATACATAGTGAACGGAGTCACCTAGTGCAG”, the binding signal is 21300 fluorescence intensity (a.u.).

As to “CACCGATTTCATCGTGCCGTGACTCACATGCCGCGCCGACCGGAGTCACCTAGTGCAG”, the binding signal is 8120 fluorescence intensity (a.u.).

As for “GGGTGAGTGTGTGTTGTGCGTTGTGAGTGTGTATGTGTTTCGGAGTCACCTAGTGCAG”, the binding signal was 3730 fluorescence intensity (a.u.).

Turning to “ACTAGTCCATGTAAACACAACAAATAGGTGATGTCATGGACGGAGTCACCTAGTGCAG”, the binding signal was 4800 fluorescence intensity (a.u.).
